Consider 3 molecules from patent US20090036365A1.

These are yes or no findings as the source states them, for the method shown. Binding can be weak; no strength is given.

The labels stand for the following.
B1: QS4, yeast-expressed soluble protein (designed binder)
chain: EAAEMHSFCAFKADDGPCKARFERFFFNIFTRQCEQFYYGGCDGNQNRFESLEECKKMCTRD
B2: ARFK#1, yeast-expressed soluble protein (designed binder)
chain: EAAEMHSFCAFKADDGPCKARFERFFFNIFTRQCEQFVYGGCGGNQNRFESLEECKKMCTRD
B3: ARFK#2, yeast-expressed soluble protein (designed binder)
chain: EAAEMHSFCAFKADDGPCKARFERFFFNIFTRQCEEFVYGGCGGNQNRFESLEECKKMCTRD

This assay concerns the target Trypsin. Kind of assay: affinity chromatography on trypsin-agarose beads.
B1: the binding result is “binds”. As for B2, the binding result is “binds”. Turning to B3, the binding entry is given as “binds”.
